From the supplement of paper PMC10849652 come the findings set out here.

Protein sequences, listed by entry. Tags and fused reporters are not part of them. Lines headed by an entry give the natural chain unless they say otherwise; changes in a name come on top.
UniProt O75382: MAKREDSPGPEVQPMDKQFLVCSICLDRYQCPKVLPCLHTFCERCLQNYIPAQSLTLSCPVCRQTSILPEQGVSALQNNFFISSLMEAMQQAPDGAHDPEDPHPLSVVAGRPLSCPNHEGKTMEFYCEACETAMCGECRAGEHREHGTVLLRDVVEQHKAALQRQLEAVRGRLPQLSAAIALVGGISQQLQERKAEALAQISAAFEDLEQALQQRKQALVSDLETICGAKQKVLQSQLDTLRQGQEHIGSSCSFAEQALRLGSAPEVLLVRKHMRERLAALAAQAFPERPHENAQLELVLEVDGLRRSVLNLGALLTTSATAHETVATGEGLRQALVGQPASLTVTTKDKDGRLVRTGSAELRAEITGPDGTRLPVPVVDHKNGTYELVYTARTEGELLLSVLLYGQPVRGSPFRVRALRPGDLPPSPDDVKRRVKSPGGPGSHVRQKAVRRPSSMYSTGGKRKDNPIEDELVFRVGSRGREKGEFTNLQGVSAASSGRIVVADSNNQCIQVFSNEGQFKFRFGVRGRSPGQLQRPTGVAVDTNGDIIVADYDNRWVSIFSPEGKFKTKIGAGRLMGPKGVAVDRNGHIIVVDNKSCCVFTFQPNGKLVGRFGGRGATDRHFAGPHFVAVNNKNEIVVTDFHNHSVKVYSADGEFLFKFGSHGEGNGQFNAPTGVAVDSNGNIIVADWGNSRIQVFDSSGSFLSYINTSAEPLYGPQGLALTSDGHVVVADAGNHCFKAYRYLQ
UniProt Q99576: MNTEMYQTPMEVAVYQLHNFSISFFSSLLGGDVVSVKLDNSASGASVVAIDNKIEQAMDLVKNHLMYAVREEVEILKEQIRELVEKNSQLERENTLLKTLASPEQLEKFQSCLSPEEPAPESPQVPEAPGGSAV
UniProt Q12999: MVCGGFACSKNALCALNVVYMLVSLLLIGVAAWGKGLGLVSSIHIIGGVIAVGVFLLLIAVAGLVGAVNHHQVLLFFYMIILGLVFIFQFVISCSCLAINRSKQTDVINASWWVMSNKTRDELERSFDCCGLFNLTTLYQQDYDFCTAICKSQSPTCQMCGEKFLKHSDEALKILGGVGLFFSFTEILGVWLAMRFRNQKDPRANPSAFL
UniProt Q6NXR4: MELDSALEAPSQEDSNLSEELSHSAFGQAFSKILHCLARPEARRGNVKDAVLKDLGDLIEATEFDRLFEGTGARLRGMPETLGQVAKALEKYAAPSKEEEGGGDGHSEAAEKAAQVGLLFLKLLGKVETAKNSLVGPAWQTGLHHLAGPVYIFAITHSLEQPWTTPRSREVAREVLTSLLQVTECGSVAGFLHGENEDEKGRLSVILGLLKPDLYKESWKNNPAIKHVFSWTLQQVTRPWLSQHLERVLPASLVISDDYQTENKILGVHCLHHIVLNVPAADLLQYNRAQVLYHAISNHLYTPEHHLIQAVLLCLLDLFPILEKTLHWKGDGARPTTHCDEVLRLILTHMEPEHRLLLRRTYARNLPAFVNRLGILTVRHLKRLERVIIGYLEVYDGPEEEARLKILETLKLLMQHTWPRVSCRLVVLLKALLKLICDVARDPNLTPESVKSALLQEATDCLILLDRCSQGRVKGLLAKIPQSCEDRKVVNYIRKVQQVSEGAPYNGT
UniProt O00463: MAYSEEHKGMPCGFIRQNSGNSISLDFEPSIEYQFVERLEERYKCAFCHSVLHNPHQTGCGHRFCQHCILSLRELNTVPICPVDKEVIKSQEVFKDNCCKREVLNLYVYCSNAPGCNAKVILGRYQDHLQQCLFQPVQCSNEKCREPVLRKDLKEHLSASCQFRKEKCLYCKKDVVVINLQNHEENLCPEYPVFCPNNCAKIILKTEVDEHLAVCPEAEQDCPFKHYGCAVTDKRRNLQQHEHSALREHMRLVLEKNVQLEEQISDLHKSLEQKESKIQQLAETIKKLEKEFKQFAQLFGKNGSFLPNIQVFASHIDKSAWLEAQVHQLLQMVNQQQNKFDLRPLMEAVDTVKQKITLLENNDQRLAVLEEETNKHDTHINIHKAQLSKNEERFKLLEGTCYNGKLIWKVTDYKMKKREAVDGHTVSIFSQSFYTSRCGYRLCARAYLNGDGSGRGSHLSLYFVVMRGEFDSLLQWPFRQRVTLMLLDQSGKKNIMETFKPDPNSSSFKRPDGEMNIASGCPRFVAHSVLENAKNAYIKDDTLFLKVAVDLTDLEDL
UniProt Q14669: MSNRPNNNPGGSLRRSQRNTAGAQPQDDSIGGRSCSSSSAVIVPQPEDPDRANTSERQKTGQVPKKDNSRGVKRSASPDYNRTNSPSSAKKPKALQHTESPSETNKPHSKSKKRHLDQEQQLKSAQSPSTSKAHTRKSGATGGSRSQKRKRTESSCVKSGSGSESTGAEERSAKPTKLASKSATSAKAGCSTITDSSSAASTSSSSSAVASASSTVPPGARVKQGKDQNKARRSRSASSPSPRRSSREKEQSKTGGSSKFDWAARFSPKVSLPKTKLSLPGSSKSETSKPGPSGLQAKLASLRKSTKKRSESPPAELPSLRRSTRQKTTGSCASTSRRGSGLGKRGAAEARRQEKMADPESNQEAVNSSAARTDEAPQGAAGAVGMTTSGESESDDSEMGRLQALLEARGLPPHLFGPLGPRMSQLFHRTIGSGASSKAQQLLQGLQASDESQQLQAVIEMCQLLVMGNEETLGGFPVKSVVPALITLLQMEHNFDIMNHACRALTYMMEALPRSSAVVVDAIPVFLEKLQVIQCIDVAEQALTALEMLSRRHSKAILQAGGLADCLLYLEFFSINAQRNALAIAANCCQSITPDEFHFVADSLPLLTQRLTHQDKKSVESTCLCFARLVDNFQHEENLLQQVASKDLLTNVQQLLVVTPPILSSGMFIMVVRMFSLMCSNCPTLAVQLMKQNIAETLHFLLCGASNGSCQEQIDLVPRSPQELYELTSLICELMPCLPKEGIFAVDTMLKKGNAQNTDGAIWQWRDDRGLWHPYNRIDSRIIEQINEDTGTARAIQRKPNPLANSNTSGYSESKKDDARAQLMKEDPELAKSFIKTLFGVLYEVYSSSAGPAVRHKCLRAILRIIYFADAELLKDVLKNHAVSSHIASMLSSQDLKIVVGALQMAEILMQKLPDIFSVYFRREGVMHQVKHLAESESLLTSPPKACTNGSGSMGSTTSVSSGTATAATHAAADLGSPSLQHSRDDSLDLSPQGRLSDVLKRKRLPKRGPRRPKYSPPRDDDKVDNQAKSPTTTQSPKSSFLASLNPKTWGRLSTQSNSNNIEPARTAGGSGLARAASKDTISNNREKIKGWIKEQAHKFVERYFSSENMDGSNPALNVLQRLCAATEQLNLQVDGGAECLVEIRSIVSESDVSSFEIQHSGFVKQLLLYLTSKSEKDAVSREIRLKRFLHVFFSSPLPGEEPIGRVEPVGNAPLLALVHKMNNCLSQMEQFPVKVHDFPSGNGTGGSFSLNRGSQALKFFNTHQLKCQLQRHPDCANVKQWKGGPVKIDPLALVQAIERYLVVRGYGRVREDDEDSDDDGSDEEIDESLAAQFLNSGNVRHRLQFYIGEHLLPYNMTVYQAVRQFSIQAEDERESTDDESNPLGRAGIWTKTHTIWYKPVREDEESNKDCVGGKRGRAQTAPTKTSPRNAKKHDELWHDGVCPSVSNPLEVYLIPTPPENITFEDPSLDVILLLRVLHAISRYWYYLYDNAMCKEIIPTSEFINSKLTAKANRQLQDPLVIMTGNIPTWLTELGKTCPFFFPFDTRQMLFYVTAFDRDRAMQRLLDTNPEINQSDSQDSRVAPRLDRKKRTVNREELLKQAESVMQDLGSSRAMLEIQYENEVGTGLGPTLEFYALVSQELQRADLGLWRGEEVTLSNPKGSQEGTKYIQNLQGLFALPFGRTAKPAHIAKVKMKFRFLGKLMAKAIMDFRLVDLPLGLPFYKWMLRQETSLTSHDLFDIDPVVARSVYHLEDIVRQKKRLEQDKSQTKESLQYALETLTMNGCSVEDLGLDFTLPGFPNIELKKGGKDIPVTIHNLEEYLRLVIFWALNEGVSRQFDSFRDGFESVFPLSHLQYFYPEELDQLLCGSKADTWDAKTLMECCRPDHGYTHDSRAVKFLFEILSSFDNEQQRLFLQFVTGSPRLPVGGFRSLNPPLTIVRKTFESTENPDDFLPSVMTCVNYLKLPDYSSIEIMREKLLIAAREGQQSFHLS
UniProt Q6ZTA4: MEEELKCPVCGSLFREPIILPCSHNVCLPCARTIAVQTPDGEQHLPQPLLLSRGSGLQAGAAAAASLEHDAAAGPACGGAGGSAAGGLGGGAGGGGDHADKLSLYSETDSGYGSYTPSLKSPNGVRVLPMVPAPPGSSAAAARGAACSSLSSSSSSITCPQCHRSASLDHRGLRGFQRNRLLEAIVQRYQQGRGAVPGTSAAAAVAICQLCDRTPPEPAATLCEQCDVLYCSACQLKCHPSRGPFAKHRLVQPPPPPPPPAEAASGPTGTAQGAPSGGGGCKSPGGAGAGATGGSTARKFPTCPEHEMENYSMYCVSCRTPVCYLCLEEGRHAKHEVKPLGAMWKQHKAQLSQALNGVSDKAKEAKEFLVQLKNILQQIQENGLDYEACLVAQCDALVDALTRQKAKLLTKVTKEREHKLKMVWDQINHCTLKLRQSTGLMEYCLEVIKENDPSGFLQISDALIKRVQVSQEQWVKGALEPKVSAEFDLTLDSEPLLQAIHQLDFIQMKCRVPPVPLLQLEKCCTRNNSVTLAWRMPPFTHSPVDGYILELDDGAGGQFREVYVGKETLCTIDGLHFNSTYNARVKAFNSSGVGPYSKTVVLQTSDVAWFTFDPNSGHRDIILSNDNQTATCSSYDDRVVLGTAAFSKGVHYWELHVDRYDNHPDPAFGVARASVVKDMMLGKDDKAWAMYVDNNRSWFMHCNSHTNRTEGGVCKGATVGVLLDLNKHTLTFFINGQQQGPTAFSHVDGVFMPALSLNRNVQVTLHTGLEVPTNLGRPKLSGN
UniProt O60637: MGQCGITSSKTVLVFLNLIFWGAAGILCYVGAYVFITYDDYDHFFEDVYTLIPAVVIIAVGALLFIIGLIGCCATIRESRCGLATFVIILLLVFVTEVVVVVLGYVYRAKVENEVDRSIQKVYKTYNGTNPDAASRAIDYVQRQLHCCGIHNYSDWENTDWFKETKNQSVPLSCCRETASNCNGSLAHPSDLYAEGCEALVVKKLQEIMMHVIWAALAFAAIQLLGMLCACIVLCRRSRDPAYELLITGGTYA
UniProt Q9BU70: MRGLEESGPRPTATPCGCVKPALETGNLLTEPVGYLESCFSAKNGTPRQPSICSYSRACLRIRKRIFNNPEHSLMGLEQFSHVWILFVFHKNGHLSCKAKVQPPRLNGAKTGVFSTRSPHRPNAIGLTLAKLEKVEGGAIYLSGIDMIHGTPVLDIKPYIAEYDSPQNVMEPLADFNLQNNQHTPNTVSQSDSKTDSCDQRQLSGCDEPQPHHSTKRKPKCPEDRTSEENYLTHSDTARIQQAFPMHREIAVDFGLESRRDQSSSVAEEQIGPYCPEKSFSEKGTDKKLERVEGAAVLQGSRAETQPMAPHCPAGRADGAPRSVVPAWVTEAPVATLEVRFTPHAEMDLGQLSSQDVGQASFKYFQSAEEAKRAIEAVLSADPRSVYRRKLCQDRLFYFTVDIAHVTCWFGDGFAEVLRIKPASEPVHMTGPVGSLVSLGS
UniProt O94972: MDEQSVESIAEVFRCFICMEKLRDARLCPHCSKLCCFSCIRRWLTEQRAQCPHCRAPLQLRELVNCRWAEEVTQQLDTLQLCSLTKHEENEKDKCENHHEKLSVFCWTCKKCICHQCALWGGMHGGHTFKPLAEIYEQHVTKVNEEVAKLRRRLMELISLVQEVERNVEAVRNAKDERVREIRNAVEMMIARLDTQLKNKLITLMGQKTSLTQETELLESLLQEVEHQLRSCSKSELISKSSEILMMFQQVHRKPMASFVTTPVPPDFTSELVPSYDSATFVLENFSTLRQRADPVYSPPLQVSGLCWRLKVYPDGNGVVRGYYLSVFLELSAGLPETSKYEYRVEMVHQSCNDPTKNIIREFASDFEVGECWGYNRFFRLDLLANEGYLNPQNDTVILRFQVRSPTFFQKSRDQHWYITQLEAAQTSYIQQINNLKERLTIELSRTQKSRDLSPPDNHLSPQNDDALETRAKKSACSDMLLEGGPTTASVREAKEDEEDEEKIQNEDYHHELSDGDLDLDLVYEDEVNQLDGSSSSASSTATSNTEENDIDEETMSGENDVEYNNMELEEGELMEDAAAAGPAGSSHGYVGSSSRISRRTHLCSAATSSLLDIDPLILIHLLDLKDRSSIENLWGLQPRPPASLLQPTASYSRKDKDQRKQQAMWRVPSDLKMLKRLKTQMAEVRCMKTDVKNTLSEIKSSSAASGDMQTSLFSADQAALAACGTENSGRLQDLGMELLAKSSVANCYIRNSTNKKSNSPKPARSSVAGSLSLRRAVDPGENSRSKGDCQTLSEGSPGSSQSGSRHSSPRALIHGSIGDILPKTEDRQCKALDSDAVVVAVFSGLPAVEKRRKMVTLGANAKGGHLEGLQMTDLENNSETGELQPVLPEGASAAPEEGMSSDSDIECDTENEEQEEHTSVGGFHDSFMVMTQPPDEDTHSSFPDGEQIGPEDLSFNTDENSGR

Some of the results follow.

Holding throughout (test): log2 fold change, soluble protein after heating vs DMSO (PISA); higher = thermal stabilisation; K562 lysate, 10 uM; active = over 0.2 and 3.5 SD of the protein, either way, in both replicates (recomputed)
Compound in assay [1]: O=C1NC(=O)C(c2cnc3ccccn23)=C1c1cn2c3c(cc(F)cc13)CN(C(=O)N1CCCCC1)CC2
In short, it runs like this:
(§1)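 Following dounce homogenisation of K562 pellets in PBS pH 7.4 with 1 mM MgCl2, crude extract at 1 mg/mL protein was incubated for 30 min with 10 μM compound. Aliquots were then heated for 3 min over 48°C-58°C and pooled, NP-40 was added to 0.5% at 4°C, and soluble protein was recovered as the supernatant at 21,000xg for 90 min. Channel-sum-equalised TMTpro 16plex LC-MS/MS quantified this protein. Each value, from duplicates, is a log-two fold change in thermal stability relative to solvent controls.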

Compound in assay [2]: NCC(=O)Nc1ccc(-n2nc(C(F)(F)F)cc2-c2ccc3c(ccc4ccccc43)c2)cc1
In short, it runs like this: as §1

Compound in assay [3]: c1cn2cc(-c3ccc4cn[nH]c4c3)nc(Nc3ccc(N4CCOCC4)cc3)c2n1 [entospletinib]
In short, it runs like this: as §1

Compound in assay [4]: O=C(CCCCCCC(=O)Nc1ccccc1)NO [vorinostat]
In short, it runs like this: as §1

Compound in assay [5]: O=C(O)c1ccc2c(c1)nc(Nc1cccc(Cl)c1)c1ccncc12 [silmitasertib]
An outline of the steps:
as §1

Take TRMT44 (UniProt Q8IYL2): in assay [1], the log2 fold change is inactive: 0.013.

As for TRIM41 (UniProt Q8WV44), the log2 fold change is inactive: 0.083 in assay [2], inactive: 0.12 in assay [1] and inactive: 0.056 in assay [3].

For TRIM3 (UniProt O75382), the log2 fold change in assay [2] was inactive: -0.304; in assay [4], inactive: -0.055; in assay [5], inactive: -0.179; in assay [3], inactive: -0.056.

Regarding TSC22D3 isoform 3 (UniProt Q99576), the log2 fold change in assay [4] was inactive: 0.023; in assay [5], inactive: -0.106; in assay [1], inactive: 0.158.

Turning to TSPAN31 (UniProt Q12999), the log2 fold change in assay [2] was inactive: -0.037; in assay [1] it was inactive: -0.033.

Take TSPYL6 (UniProt Q8N831): the log2 fold change in assay [4] was inactive: -0.019; in assay [5], inactive: 0.007.

TTC3 (UniProt P53804): the log2 fold change was inactive: -0.257 in assay [4] and inactive: -0.074 in assay [5].

For TTC21B (UniProt Q7Z4L5), the log2 fold change in assay [2] was inactive: 0.141; in assay [4], inactive: -0.14; in assay [5] it was inactive: -0.192; in assay [3], inactive: 0.175.

Regarding TTI2 (UniProt Q6NXR4), the log2 fold change was inactive: 0.05 in assay [2]; active: -0.303 in assay [4]; inactive: 0.015 in assay [5]; inactive: 0.034 in assay [1]; inactive: 0.005 in assay [3].

As to TRAF5 isoform 2 (UniProt O00463), the log2 fold change is inactive: -0.099 in assay [4], inactive: -0.007 in assay [5] and inactive: -0.056 in assay [3].

On to TRIP12 isoform 2 (UniProt Q14669), for which the log2 fold change in assay [2] is inactive: -0.057; in assay [4] it was active: -0.266; in assay [5], inactive: 0.03; in assay [1], inactive: 0.005; in assay [3], inactive: -0.002.

Consider TSPAN4 (UniProt O14817), for which the log2 fold change is inactive: 0.026 in assay [2]; inactive: -0.034 in assay [4]; inactive: -0.007 in assay [5]; inactive: 0.006 in assay [1]; inactive: -0.01 in assay [3].

On to TRAF7 (UniProt Q6Q0C0), for which the log2 fold change in assay [2] was inactive: 0.052; in assay [1], inactive: 0.059; in assay [3] it was inactive: 0.058.

As for TSPYL2 (UniProt Q9H2G4), the log2 fold change is inactive: 0.014 in assay [4], inactive: 0.02 in assay [5], inactive: -0.125 in assay [1] and inactive: -0.12 in assay [3].

With TRIM67 (UniProt Q6ZTA4), the log2 fold change was inactive: -0.094 in assay [4], inactive: -0.016 in assay [5] and inactive: -0.013 in assay [3].

In the case of TSPAN3 (UniProt O60637), the log2 fold change is inactive: -0.124 in assay [2], inactive: 0.105 in assay [4], inactive: -0.056 in assay [5] and inactive: -0.005 in assay [3].

Take TRPS1 isoform 2 (UniProt Q9UHF7): the log2 fold change in assay [4] is inactive: 0.002; in assay [5], inactive: -0.221; in assay [1] it was inactive: -0.258.

For TTC13 (UniProt Q8NBP0), the log2 fold change in assay [2] was inactive: 0.087; in assay [1], inactive: 0.124.

As for TRMO (UniProt Q9BU70), the log2 fold change was inactive: -0.014 in assay [2], inactive: -0.135 in assay [1] and inactive: -0.006 in assay [3].

Turning to TRIM26 (UniProt Q12899), the log2 fold change in assay [1] is inactive: -0.143.

On to TRIM68 (UniProt Q6AZZ1), for which the log2 fold change was inactive: 0.101 in assay [4], inactive: -0.119 in assay [5], inactive: -0.076 in assay [1] and inactive: 0.202 in assay [3].

Turning to TRIM37 (UniProt O94972), the log2 fold change is inactive: -0.175 in assay [4], inactive: 0.01 in assay [5], inactive: 0.04 in assay [1] and inactive: -0.051 in assay [3].

For TTBK2 (UniProt Q6IQ55), the log2 fold change was inactive: -0.081 in assay [4], inactive: 0.083 in assay [5], inactive: -0.021 in assay [1] and inactive: 0.324 in assay [3].

In the case of TTC26, the log2 fold change in assay [3] is inactive: 0.126.

In the case of TRIM16 (UniProt O95361), the log2 fold change in assay [4] is inactive: -0.155; in assay [5] it was inactive: 0.037; in assay [3], inactive: -0.153.
